B1: RNA binding protein 1 (protein, UniProt Q02427 1-144)
chain: MPRYREWDLACKVYVGNLGSSASKHEIEGAFAKYGPLRNVWVARNPPGFAFVEFEDRRDAEDATRALDGTRCCGTRIRVEMSSGRSRDRRRGEGGSSGRSGSGRYRITPSARTTSTATSSFYNINNLQQQPSSQPQPATFNLQL
B2: Ribosomal protein S4 (protein, UniProt P41042 1-261)
chain: MARGPKKHLKRLAAPKAWMLDKLGGVFAPRPSTGPHKLRESLPLLIFLRNRLKYALNGAEVTKIVMQRLVKVDGKVRTDPTYPAGYMDVITLEKTGEFFRLVYDVKGRFVIHRISAEEAKYKLCKVKKTQLGAKGVPFLVTHDGRTIRYPDPLIHANDSVQVDIASGKITDYIKFDSGNLCMITGGRNLGRVGTVVNRERHPGSFDIVHIKDSQGHVFATRLTNVFIIGKGNKPYISLPKGKGVKLSIAEERDKRLAAKTH
B3: Tropomyosin 2 (protein, UniProt P09491 1-284)
chain: MDAIKKKMQAMKLEKDNAIDKADTCENQAKDANSRADKLNEEVRDLEKKFVQVEIDLVTAKEQLEKANTELEEKEKLLTATESEVATQNRKVQQIEEDLEKSEERSTTAQQKLLEATQSADENNRMCKVLENRSQQDEERMDQLTNQLKEARMLAEDADTKSDEVSRKLAFVEDELEVAEDRVRSGESKIMELEEELKVVGNSLKSLEVSEEKANQRVEEFKREMKTLSIKLKEAEQRAEHAEKQVKRLQKEVDRLEDRLFNEKEKYKAICDDLDQTFAELTGY
B4: Repressor splicing factor1 (protein, UniProt Q24491 1-200)
chain: MSSMGDQRGTRVYVGNLTDKVKKDDLEGEFTKYGKLNSVWIAFNPPGFAFVEFEHRDDAEKACDILNGSELLGSQLRVEISKGRPRQGRRGGPMDRGGRRGDFGRHSITSGGSGGGGFRQRGSSGSSSRHTERGYSSGRSGASSYNGREGGGSGFNRREVYGGGRDSSRYSSGSSASYGRTGGQSAGRFRSRSPVGNHRF
B5: Cleavage and polyadenylation specificity factor subunit CG7185 (protein, UniProt Q9VSH4 1-652)
chain: MADVVLDLYAEDLDKDFAGQAQDEFGGDGVDLYDDIGGPTESAASGGGGGGTPSADGAAGPGSGEPGERNSGGPNGVYHQSSGSLTPTMNRRYQLYVGNLTWWTTDQDIANSLRDIGVSDLQEVKFFENRANGQSKGFSVISLGSESSLRAVLDQLPKKEMHGQAPVVTYPSKQALTQFESLQKTRPVPPPQQNGPPRGPAPPSMGGGPMPTGHPGGPQGGGPPGHPPRGMNSIMQPGQYRPQHMSQVPQVGGPNSGPPRMQPPMHPQGGLMGNQQPPPRYPSAQGQWPGQRPGGPRPGPPNGPPQRPMFQGGPMGMPVRGPAGPDWRRPPMHGGFPPQGPPRGLPPAPGPGGPHGAPAPHVNPAFFNQPGGPAQHPGMGGPPHGAPGPQPGMNMPPQQGMNMTPQHGPPPQFAQHGPRGPWPPPQGKPPGPFPDPQQMGPQLTEVEFEEVMSRNRTVSSSAIARAVSDAAAGEYSSAIETLVTAISLIKQSKVAHDERCKILISSLQDTLHGIEAKSYNRRERSRSRERSHRSRQRRERSTSRYRERSRERERDRDRERERDGGSYRERSRSRERERQAPDHYRDDSRSVRPRKSPEPVVAEAAEAPSSKRYYEDRERYRSSDRERRDRDRDRDRERERDRDRREEHRSRH
B6: Histone H1 (protein, UniProt P02255 1-256)
chain: MSDSAVATSASPVAAPPATVEKKVVQKKASGSAGTKAKKASATPSHPPTQQMVDASIKNLKERGGSSLLAIKKYITATYKCDAQKLAPFIKKYLKSAVVNGKLIQTKGKGASGSFKLSASAKKEKDPKAKSKVLSAEKKVQSKKVASKKIGVSSKKTAVGAADKKPKAKKAVATKKTAENKKTEKAKAKDAKKTGIIKSKPAATKAKVTAAKPKAVVAKASKAKPAVSAKPKKTVKKASVSATAKKPKAKTTAAKK
B7: Myosin Alkali light chain (protein, UniProt P06742 1-155)
chain: MADVPKREVENVEFVFEVMGSPGEGIDAVDLGDALRALNLNPTLALIEKLGGTKKRNEKKIKLDEFLPIYSQVKKEKEQGCYEDFIECLKLYDKEENGTMLLAELQHALLALGESLDDEQVETLFADCMDPEDDEGFIPYSQFVQRLMSDPVVFD
B8: endogenous Hts (protein, UniProt Q02645 1-1156)
chain: MTEVEQPPQNGIDPTAGEDDDNSKARPADIEQDMREMERRKRVEAIMGSKLFREELERIVDSARDGGAGASGILQQLSDIVGVPVSRVGSVFKSSNCMVPINDIRGVESMGYAKGEKILRCKLAATFRLLDLYGWTQGLGAQITARLKVDQEYFLVNPYGLLYHEITASALNKVDMQGQIVEQGTTNFGGNKSHFVLHSVVHAARPDIRCAIYIGCSPVVAISSLKTGLLPLTKDACVLGEITTHAYTGLFDEEERNRLVRSLGPNSKVILLTNHGALCCGETIEEAFFAACHIVQACETQLKLLPVGLDNLVLIPEESRKAIYEQSRRPPEDLEKKFAAVAAAEDGAATAEKDAAEAVPKVGSPPKWRVGGAEFEALMRMLDNAGYRTGYIYRHPLIKSDPPKPKNDVELPPAVSSLGYLLEEEELFRQGIWKKGDIRKGGDRSRWLNSPNVYQKVEVLETGTPDPKKITKWVAEGSPTHSTPVRIEDPLQFVPAGTNPREFKRVQQLIKDNRRADKISAGPQSHILEGVTWDEASRLKDATVSQAGDHVVMMGAASKGIIQRGFQHNATVYKAPYAKNPFDNVTDDELNEYKRTVERKKKSVHGEYTDTDFSESEAVLQAGTKKYPQSEPETEHQVIEIQTQQAPVPRQAEVVLSDALVSQLAQKYAFLYSPGQYMYACMKMAPLMHKVYVIHKVEPVSKHNYPPVNDGNMSIHHNESGAGFMAQESSVISSTPVRNALASVSLPEERNHSILGLSSTPYRTISHFGFNCPLITSPTILLHPEHRSIWQRVAEQREKVVSFIDLTTLSLDNRKLLNVVTSTHPTQCQSQSQSFISEKHIQLEVTPPKRKQRVYSATISSGLDDSLDELDSLMSGLAINMPRSREQDSGLYRSYTFLPSNHALPKDTDANNRDQTDRERPEAEQEESFHCAGDSGIGDSTGRRPRLATTSNDSSIQEAEAYTQGKHVKLTLSSSPTPTATQSPATIEILINVSLRNAECVQTVQTHEQEFRAKLERVIDEEIHYISQQLAFKQRQAELHEQQTTSRAPIATPSFTTMHPPAPASSSSMVHRSNSAPELCHTYSYVAVGDLSTKQDQASPQLPAEGEPLNDILSSLEKELERLLNSVVTAHMLHNKAIIHECRARFSQLADGIVSS
B9: X16 (protein, UniProt Q9V3V0 1-258)
chain: MSRHPSDRKVYVGDLGNNARKNDLEYVFGAYGSLRSVWIARNPPGFAFVEFESARDAADAVRGLDGRTVCGRRARVELSTGKYARSGGGGGGGGGGGGGGGLGGRDRGGGGRGDDKCYECGGRGHFARHCRERKARQRRRSNSFSRSRSTSRRRRTRSKSGTRSRSRSAGSVGRRSGRSNGRDENGSASRYSDHERNGSGAVDSPPPPKRRYEDEDDDRVRGSPRSRSRSRSASPAVRRGSPPRRRGDSSASRSVSRD

Protein sequences, listed by entry. Tags and fused reporters are not part of them.
UniProt P45891: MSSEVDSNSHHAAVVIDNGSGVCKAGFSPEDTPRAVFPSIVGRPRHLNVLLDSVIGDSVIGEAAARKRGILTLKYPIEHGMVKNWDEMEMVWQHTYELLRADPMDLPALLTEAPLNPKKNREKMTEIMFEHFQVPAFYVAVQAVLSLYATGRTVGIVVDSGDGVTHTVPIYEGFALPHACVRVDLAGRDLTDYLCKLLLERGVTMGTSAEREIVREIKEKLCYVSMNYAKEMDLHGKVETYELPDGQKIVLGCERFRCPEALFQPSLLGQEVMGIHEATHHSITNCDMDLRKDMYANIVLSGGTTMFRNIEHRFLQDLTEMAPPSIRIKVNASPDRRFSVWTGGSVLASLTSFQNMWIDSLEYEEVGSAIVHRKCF
UniProt P48609: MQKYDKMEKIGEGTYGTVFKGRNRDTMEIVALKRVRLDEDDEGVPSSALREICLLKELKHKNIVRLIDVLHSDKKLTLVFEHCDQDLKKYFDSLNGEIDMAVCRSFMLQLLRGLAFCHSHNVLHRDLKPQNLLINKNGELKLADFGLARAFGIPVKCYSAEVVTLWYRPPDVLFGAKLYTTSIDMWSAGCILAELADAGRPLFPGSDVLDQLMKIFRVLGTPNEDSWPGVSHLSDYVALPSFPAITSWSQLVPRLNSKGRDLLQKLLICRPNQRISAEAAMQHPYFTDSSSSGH
UniProt Q9V8R9: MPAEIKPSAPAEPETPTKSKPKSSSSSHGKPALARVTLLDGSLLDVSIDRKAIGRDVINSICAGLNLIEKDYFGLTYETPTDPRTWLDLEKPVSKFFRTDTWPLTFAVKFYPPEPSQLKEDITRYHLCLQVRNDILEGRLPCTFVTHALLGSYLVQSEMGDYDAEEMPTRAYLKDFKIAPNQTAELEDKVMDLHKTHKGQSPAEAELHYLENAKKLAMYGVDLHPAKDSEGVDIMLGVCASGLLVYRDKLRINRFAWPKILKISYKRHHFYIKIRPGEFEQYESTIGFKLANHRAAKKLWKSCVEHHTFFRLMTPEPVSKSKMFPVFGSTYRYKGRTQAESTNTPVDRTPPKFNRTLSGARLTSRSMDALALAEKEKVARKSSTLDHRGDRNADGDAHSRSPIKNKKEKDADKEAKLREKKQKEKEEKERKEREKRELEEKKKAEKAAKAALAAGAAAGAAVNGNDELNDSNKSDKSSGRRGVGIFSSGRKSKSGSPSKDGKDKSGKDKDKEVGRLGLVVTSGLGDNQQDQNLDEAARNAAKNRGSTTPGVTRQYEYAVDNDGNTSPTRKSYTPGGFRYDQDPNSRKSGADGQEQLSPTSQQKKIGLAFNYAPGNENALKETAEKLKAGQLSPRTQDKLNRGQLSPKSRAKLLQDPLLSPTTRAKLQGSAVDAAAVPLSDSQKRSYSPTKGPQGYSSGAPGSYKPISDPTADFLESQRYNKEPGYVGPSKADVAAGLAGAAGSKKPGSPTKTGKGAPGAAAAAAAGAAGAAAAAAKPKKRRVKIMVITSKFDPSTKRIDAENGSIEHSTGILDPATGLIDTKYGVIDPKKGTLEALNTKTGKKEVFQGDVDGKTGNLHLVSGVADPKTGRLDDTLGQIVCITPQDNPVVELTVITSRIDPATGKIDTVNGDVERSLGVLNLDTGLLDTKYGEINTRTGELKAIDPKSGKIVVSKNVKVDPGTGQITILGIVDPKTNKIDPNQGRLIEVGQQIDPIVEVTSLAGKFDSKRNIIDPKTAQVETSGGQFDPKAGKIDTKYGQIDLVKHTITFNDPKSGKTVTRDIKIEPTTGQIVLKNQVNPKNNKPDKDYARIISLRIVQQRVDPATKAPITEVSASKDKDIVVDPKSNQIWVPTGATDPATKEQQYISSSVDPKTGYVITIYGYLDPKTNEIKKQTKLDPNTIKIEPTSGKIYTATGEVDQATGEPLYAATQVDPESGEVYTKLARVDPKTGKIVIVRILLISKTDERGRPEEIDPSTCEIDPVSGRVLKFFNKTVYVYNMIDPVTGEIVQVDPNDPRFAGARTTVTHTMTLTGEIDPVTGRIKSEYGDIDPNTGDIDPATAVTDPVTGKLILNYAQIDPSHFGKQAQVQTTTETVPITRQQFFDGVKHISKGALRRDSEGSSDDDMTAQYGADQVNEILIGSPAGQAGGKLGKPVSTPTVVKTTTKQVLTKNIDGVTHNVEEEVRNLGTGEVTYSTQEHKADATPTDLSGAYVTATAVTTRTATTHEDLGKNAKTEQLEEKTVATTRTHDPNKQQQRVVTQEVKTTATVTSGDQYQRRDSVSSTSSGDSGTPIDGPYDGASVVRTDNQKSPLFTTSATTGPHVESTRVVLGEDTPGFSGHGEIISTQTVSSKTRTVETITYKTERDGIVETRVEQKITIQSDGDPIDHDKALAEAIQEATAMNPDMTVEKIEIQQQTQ
UniProt P29845: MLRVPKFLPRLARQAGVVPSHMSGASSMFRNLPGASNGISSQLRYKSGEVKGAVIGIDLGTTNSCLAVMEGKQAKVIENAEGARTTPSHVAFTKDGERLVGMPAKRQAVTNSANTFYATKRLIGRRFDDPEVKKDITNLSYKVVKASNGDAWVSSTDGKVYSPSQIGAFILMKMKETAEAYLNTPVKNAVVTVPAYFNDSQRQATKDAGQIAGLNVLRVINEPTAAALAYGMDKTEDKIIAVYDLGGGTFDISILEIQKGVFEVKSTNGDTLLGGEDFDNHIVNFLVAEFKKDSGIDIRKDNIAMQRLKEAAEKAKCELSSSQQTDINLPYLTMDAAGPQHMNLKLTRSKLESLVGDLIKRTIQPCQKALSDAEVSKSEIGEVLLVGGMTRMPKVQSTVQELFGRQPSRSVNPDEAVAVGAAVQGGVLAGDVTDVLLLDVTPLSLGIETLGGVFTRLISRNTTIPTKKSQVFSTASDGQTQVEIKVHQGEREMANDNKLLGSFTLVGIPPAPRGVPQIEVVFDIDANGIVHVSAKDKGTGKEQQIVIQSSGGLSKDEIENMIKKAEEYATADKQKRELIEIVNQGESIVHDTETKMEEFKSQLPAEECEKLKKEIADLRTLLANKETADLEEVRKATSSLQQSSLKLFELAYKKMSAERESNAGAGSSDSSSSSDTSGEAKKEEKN
UniProt P82910: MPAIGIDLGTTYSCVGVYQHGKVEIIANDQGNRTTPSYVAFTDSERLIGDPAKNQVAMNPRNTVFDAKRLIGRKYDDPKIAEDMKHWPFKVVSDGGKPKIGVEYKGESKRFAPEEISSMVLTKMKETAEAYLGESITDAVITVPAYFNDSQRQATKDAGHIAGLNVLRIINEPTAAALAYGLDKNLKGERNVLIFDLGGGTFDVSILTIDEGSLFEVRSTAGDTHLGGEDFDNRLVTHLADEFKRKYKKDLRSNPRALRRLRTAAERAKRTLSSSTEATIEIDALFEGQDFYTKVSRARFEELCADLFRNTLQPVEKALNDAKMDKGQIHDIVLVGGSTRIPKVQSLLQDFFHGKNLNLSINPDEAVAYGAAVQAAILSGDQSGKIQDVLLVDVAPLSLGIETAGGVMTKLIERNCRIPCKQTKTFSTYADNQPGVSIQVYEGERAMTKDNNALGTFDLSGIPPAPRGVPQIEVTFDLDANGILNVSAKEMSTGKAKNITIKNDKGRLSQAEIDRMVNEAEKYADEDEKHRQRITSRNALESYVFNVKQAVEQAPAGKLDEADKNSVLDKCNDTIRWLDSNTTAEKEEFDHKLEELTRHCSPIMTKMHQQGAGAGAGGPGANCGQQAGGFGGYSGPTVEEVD
UniProt Q9W5R8: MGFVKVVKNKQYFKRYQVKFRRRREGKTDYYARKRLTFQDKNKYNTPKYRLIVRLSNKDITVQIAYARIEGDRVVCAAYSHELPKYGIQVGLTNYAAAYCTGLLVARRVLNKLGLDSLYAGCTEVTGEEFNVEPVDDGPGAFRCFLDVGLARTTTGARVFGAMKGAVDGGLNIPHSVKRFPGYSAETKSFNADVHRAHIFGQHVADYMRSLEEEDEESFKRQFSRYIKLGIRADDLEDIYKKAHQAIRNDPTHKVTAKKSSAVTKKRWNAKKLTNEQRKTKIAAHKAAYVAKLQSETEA
UniProt P19109: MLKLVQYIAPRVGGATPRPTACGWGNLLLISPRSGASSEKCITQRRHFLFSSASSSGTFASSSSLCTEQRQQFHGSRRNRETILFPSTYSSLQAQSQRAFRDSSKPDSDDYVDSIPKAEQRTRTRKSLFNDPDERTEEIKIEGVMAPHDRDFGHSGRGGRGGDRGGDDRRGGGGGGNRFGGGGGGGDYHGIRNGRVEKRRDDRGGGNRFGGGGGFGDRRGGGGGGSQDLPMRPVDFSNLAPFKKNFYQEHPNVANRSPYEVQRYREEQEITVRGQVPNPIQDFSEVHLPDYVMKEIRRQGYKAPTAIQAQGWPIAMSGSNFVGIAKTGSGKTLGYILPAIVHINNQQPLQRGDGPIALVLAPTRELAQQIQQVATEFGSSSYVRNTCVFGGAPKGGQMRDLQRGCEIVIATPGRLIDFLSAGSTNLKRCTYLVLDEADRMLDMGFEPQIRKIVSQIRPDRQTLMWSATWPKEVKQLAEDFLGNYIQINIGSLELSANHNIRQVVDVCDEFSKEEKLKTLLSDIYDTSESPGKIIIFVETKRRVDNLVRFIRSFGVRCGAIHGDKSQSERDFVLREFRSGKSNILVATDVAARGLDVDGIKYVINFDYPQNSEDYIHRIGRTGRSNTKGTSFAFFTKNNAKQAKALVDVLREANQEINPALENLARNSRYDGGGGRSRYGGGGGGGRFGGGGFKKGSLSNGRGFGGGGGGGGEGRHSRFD
UniProt P06605: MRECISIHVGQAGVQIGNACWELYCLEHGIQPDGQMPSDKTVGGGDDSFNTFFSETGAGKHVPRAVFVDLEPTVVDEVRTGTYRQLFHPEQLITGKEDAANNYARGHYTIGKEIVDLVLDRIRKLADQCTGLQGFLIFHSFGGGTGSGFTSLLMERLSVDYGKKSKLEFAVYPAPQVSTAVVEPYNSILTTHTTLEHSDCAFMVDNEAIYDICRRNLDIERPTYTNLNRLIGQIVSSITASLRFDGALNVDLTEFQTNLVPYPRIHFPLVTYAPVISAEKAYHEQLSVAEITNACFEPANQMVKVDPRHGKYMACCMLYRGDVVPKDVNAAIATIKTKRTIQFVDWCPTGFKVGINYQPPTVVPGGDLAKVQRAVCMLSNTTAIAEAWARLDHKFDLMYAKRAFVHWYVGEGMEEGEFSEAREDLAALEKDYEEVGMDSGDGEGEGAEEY
UniProt P06604: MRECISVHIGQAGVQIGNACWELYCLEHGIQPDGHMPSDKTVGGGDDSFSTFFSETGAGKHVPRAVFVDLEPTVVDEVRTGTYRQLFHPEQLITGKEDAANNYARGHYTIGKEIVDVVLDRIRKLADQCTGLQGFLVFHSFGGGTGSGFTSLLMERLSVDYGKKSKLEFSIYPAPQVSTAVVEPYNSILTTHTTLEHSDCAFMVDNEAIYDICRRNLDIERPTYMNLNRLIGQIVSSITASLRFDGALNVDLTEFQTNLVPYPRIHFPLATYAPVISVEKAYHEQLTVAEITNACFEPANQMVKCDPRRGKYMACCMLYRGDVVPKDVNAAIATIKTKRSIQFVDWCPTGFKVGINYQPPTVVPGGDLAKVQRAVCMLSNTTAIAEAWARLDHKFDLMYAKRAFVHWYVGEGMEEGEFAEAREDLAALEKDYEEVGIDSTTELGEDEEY
UniProt Q24560: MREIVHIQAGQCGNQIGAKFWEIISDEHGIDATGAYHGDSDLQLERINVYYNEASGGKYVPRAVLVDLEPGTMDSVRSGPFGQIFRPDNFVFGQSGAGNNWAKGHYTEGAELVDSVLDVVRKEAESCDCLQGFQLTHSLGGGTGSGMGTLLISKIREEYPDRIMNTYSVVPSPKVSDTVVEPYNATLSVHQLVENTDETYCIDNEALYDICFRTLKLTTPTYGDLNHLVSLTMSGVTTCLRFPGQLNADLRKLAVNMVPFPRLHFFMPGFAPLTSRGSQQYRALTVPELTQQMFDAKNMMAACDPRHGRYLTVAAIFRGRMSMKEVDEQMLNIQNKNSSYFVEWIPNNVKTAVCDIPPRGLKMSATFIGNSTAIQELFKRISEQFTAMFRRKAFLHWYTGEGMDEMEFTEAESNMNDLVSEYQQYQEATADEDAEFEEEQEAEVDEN
UniProt P61857: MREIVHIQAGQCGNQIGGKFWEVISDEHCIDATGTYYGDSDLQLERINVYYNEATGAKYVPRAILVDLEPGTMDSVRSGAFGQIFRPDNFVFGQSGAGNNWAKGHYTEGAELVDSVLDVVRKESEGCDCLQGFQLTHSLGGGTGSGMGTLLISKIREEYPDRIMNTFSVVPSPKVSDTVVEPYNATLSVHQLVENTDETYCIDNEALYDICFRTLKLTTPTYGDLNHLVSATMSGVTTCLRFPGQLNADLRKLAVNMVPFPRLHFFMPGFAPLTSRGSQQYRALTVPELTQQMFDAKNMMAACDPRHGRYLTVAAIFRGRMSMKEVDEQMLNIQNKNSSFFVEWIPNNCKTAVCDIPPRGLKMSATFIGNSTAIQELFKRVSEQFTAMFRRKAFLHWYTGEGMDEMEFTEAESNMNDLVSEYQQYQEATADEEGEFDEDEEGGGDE

Results are given in words; binding and its absence hold for the method and conditions named. Binding seen in cells or lysates may run through a third protein. Here binding means that the protein was enriched with, or labelled near, the bait; the list need not be complete. Tags and fused reporters may be left off the sequences shown.

In the assay the target is GST-Pur α fusion protein (Drosophila melanogaster) (UniProt Q95RR6). The assay can be described thus: affinity purification with mass spectrometry; GST-Pur α (GST alone as control) on glutathione beads packed as a column; dialysed and cleared wild-type adult fly head extract (20 mM Hepes pH 7.2, 0.1 M NaCl) run through; washed, eluted with 0.2, 0.6 and 2 M NaCl buffers; SDS gel, LC-MS/MS; only the target purified.
Turning to “ATP synthase β (from UniProt Q05825 32-505)”, the binding entry is reported as “binds”.

As for “Actin related protein 53D (from UniProt P45891 1-376)”, the binding entry is on record as “binds”.

As to Aly (from UniProt Q9V3E7), the binding result is “binds”.

For Bellwether (from UniProt P35381 48-552), the binding result is on record as “binds”.

On to CG14648 (from UniProt Q9VN21), for which the binding entry is recorded as “binds”.

Consider “Calcium/calmodulin-dependent protein kinase II (from UniProt Q00168 1-530)”, for which the binding result is listed as “binds”.

Turning to Cdk5 (from UniProt P48609 1-294), the binding entry is listed as “binds”.

On to Coracle (from UniProt Q9V8R9 1-1698), for which the binding result is “binds”.

Consider “Glutathione S transferase E1 (from UniProt A1ZB66)”, for which the binding entry is given as “binds”.

As to “Glutathione S transferase E6 (from UniProt A1ZB71)”, the binding entry is listed as “binds”.

As to “Heat Shock protein cognate 2 (from UniProt P11146 1-633)”, the binding result is “binds”.

Consider “Heat Shock protein cognate 4 (from UniProt P11147 1-651)”, for which the binding entry was “binds”.

On to “Heat Shock protein cognate 5 (from UniProt P29845 1-686)”, for which the binding result was “binds”.

Turning to Hsp70 Aa (from UniProt P82910 1-642), the binding entry is on record as “binds”.

Take Hsp70 Ab (from UniProt P02825 1-642): the binding entry is “binds”.

With Hsp70 Ba (from UniProt Q8INI8 1-641), the binding result is “binds”.

Take Hsp70 Bb (from UniProt Q9BIS2 1-641): the binding result is reported as “binds”.

As for Hsp70 Bc (from UniProt Q9BIR7 1-641), the binding result is given as “binds”.

On to Hsp 68 (from UniProt O97125 1-635), for which the binding result was “binds”.

On to Lark (from UniProt Q94901 1-352), for which the binding result is “binds”.

As for NinaC (from UniProt P10676 1-1501), the binding entry is reported as “binds”.

For “Retinoid- and fatty acid-binding glycoprotein (from UniProt Q9V496 26-3351)”, the binding result is listed as “binds”.

On to “Ribosomal protein L11 (from UniProt P46222 1-184)”, for which the binding entry was “binds”.

Regarding “Ribosomal protein S20 (from UniProt P55828 1-120)”, the binding entry was “binds”.

For the molecule “Ribosomal protein l5 (from UniProt Q9W5R8 1-299)”, the binding result is “binds”.

For the molecule SF2 (from UniProt Q9V3W7), the binding entry is on record as “binds”.

Regarding “Tropomyosin 1 (from UniProt P06754 1-339)”, the binding entry is given as “binds”.

Regarding Upheld (from UniProt P19351 1-397), the binding result was “binds”.

As for Vasa intronicgene (from UniProt Q9V426), the binding result is “binds”.

With “endogenous Rm62 (from UniProt P19109 1-719)”, the binding entry is recorded as “binds”.

Regarding “α Tubulin 84B (from UniProt P06603 1-450)”, the binding result is “binds”.

As for “α Tubulin 84D (from UniProt P06605 1-450)”, the binding entry was “binds”.

Take “α Tubulin 85E (from UniProt P06604 1-449)”: the binding result is reported as “binds”.

As for “β Tubulin 56D (from UniProt Q24560 1-447)”, the binding entry is recorded as “binds”.

In the case of “β Tubulin 60D (from UniProt P08841 1-454)”, the binding result was “binds”.

Consider “β Tubulin 85D (from UniProt P61857 1-446)”, for which the binding result is given as “binds”.

As to B1, the binding result was “binds”.

In the case of B2, the binding result is given as “binds”.

Turning to B3, the binding entry is “binds”.

B4: the binding result is given as “binds”.

Consider B5, for which the binding result is reported as “binds”.

Turning to B6, the binding entry is recorded as “binds”.

Take B7: the binding entry is “binds”.

Consider B8, for which the binding result was “binds”.

In the case of B9, the binding entry is “binds”.

The record behind these values is publication PMC3107199.
